Assay results taken from patent US20250170247A1, “CONJUGATES, AND USES THEREOF” (CITY UNIVERSITY OF HONG KONG, priority 2023, published 2025).
Results from cells or extracts need not show a direct contact. Where a protein sequence is shown, tags need not be part of it.

Molecular target: T1, DHX36 (endogenous, HeLa) (Homo sapiens) (UniProt Q9H2U1)
T1 sequence (looked up, limits assumed): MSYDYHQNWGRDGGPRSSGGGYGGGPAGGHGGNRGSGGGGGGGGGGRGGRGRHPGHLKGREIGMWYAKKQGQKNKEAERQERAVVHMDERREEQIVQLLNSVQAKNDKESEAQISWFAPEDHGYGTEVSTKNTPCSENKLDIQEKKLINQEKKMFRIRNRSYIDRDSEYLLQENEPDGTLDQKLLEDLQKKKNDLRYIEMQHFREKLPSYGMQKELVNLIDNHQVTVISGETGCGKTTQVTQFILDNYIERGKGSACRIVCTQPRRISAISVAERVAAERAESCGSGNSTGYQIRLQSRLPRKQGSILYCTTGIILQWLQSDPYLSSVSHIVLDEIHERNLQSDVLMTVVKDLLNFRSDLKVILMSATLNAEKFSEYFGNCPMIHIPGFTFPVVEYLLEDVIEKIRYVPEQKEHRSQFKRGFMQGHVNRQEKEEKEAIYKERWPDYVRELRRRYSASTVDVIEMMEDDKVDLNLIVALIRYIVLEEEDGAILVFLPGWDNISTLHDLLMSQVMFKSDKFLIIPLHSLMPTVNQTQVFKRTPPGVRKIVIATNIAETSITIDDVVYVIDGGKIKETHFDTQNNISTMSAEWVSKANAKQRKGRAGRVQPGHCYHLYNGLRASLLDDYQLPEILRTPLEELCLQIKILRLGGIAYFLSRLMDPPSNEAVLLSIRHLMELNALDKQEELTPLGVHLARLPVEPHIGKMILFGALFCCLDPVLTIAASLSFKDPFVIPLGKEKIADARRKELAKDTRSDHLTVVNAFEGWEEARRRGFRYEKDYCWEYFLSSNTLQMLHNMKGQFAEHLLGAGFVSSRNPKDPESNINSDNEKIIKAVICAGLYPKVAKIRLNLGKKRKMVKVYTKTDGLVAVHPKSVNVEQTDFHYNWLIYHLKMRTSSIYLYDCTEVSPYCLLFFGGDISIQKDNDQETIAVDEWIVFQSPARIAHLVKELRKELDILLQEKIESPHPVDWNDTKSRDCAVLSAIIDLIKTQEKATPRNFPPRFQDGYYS
Test: binding assay
Conditions: 5'-hexynyl clicked to azide-modified AHPC; confocal foci colocalized with endogenous DHX36 in HeLa, data not shown; protein in cells; label: 3'-FAM

Sequence: GGGUUGCGGAGGGUGGGCCU [FAM_rG4_A (hTERC rG4 WT-AHPC conjugate)]
- binding result: binds
